This note sets out measurements from patent US20160074367.

For at least one entry, the source does not settle the construct or the ends of the probe. For some assays here: Where cells or extracts were used, other partners may take part. For some assays here: Where a protein sequence is shown, tags need not be part of it.

In series [1] the target is T1, rIRP1 (recombinant iron regulatory protein 1) (UniProt P21399).
T1 sequence (looked up, limits assumed): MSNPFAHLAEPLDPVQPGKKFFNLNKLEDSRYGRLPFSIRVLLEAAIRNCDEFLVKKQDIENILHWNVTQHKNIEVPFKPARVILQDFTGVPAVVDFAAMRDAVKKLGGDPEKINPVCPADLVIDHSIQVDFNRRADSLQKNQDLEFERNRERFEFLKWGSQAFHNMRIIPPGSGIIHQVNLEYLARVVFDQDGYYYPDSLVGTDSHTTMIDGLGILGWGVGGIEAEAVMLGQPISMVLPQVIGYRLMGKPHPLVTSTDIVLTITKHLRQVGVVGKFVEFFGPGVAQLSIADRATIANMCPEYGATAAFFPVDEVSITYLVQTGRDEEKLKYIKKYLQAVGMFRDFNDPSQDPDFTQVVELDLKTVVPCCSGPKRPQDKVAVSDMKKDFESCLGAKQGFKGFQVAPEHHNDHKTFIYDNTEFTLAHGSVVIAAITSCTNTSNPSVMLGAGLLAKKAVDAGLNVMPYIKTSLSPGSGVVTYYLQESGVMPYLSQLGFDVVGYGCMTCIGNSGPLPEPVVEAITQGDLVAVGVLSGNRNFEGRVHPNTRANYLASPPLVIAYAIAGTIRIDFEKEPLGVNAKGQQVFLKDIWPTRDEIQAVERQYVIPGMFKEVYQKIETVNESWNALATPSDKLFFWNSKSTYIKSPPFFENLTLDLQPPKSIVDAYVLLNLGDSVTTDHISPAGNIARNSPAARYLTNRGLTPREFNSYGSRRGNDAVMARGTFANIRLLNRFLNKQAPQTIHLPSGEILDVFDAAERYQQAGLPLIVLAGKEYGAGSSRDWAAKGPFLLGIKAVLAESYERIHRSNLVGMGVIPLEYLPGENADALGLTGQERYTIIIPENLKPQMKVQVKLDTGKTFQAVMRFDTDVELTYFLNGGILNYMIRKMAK
Briefly: EMSA. As to conditions: CITED Cho et al. 2010; Scatchard analysis; exact probe of cited work not given; purified recombinant protein; label: 5'-biotin. On the technique in general: A gel shift assay detects complexes by their altered migration in electrophoresis.

Series [2] concerns the target IRP1 (iron regulatory protein 1, ACO1) (Homo sapiens) (UniProt P21399). In words: pull-down. As to conditions: 100 nM RNA, 100 ug lysate, protein in an extract, protein details: endogenous, SH-SY5Y cytoplasmic lysate, label: 5'-biotin.
In series [3] the target is T2, IRP2 (iron regulatory protein 2, IREB2) (Homo sapiens) (UniProt P48200).
T2 sequence (looked up, limits assumed): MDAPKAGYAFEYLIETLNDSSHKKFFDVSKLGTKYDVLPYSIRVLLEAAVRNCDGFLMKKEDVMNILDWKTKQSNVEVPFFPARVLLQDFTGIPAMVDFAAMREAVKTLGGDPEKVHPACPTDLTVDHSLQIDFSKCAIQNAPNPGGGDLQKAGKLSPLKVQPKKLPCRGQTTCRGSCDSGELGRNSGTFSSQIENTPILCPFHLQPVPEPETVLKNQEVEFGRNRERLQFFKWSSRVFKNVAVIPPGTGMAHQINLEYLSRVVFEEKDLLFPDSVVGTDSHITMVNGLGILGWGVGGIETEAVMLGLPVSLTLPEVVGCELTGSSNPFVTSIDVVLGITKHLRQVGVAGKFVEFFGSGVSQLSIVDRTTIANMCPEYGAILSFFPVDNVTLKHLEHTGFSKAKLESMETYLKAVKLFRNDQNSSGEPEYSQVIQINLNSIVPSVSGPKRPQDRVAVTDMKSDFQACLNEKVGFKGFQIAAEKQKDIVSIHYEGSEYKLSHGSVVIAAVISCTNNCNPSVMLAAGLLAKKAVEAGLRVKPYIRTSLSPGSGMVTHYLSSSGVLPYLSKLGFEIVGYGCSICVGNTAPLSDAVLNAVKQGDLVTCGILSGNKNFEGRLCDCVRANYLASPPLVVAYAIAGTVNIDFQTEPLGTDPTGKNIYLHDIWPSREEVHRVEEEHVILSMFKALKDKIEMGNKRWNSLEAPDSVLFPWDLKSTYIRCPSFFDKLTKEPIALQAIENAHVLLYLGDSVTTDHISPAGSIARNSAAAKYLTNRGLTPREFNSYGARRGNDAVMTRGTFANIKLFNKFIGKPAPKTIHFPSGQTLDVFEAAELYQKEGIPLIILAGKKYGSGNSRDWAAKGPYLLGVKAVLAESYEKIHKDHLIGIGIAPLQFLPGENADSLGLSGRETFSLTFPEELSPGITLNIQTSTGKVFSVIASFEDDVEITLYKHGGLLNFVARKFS
In words: pull-down. As to conditions: 100 nM RNA, 100 ug lysate, room temperature; binding maintained with JTR-009; protein in an extract; protein details: endogenous, SH-SY5Y cytoplasmic lysate; label: 5'-biotin.

The Kd is the free concentration of one partner at which half of the binding sites on the other are occupied at equilibrium, for simple one-to-one binding. Regarding “GCGGUGGCGGCGCGGGCAGAGCAAGGACGCGGCGGAU [APP IRE]”, the dissociation constant (Kd) in series [1] came to 0.03 nM. Besides, the binding result in series [2] (3 h room temperature, binding reduced 20% at 0.3 uM, 50% at 3 uM, fully at 30 uM JTR-009) is “binds”.

As to “GGGUUUCCUGCUUCAACAGUGCUUGGACGGAACCCGG [H-ferritin IRE]”, the Kd in series [1] was 0.04 nM. Also, the binding result is reported as “binds” in series [2] (room temperature, binding maintained with JTR-009) and “binds” in series [3].
